Consider four substances from PMC11255023.

Chains of the proteins cited; added tags and fusions are not shown.
UniProt Q5VYY1: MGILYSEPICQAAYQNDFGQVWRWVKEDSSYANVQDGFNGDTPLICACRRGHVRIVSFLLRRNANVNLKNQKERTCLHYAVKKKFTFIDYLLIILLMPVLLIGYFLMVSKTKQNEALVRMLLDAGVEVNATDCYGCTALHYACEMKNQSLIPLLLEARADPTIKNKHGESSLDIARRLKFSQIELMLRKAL
UniProt Q9Y6M1: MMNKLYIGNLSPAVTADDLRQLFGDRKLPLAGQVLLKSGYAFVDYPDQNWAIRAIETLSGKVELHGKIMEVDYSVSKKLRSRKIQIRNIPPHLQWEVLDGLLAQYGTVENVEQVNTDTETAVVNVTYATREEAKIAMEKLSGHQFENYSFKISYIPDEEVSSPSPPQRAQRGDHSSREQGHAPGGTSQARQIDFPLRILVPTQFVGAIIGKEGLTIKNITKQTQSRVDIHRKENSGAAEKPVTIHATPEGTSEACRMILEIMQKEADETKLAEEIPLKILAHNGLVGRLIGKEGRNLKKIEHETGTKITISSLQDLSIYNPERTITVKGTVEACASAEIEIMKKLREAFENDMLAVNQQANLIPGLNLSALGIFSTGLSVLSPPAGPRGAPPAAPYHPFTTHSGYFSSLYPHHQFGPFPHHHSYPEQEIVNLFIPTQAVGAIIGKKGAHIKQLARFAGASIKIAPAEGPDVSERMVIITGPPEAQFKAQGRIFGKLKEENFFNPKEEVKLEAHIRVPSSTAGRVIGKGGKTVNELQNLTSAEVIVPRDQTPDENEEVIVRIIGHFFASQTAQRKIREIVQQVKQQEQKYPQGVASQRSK
UniProt P53396: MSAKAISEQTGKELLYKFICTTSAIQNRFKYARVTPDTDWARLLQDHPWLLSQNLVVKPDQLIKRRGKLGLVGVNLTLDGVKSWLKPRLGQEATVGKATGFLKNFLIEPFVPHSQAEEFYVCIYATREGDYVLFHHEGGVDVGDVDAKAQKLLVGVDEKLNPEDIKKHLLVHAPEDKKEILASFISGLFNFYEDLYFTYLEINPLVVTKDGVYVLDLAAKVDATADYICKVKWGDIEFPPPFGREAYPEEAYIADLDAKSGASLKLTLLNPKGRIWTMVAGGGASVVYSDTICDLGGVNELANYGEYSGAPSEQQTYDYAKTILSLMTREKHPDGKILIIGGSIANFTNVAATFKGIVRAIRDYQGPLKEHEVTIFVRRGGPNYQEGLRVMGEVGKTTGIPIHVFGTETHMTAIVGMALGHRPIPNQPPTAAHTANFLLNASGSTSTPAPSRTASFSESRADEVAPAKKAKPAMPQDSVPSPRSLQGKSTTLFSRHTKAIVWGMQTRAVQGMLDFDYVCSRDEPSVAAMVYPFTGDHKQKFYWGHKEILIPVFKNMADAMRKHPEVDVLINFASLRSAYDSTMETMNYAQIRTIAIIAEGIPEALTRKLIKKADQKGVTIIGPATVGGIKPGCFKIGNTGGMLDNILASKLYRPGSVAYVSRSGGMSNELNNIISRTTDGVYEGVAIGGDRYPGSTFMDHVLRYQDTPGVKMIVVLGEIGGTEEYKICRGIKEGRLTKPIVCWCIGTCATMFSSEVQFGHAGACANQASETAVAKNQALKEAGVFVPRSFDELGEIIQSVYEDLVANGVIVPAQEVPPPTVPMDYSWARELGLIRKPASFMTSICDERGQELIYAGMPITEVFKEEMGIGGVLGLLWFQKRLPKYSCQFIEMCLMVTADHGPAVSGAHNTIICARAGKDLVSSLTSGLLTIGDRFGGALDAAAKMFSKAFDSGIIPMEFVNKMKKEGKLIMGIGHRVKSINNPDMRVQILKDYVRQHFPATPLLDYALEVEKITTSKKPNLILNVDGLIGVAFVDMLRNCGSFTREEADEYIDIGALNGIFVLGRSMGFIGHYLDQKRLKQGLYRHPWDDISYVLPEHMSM
UniProt P06730: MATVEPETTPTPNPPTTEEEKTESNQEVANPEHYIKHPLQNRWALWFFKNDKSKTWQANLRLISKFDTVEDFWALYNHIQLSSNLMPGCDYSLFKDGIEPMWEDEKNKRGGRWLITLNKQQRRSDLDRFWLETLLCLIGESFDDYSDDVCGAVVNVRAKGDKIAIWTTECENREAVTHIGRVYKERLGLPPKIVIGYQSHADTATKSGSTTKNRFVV

One assay deals with ANKRD22-Flag (UniProt Q5VYY1). Put plainly: co-IP; Co-IP of ANKRD22 with key enzymes of lipid metabolism (Figure S8F); antibodies on protein A/G magnetic beads, cell lysates overnight at 4°C, western blotting. Background: In western blotting, separated proteins are transferred to a membrane and probed.
In assay [1] the target is ANKRD22 (human (endogenous in CNE2 and HONE1)) (UniProt Q5VYY1). Description: co-IP; endogenous Co-IP in CNE2 and HONE1 cells with anti-ANKRD22 or anti-SLC25A1 antibody; also after overexpression of METTL14 (anti-SLC25A1 antibody); protein A/G magnetic beads, lysates overnight at 4°C, western blotting.
Another assay deals with full-length ANKRD22 (UniProt Q5VYY1). Put plainly: co-IP; Co-IP with full-length and truncated ANKRD22 and SLC25A1 plasmids to map the interacting regions (Figure S8G,H).
Assay [2] concerns the target IGF2BP2 (human (endogenous in CNE2 and HONE1)) (UniProt Q9Y6M1). Description: co-IP; IP in CNE2 and HONE1 cells; antibodies on protein A/G magnetic beads, cell lysates added overnight at 4°C, western blotting.

These are yes or no findings as the source states them, for the method shown. In cells and extracts the contact can be indirect. Some binding calls cover weakened binding; strength is not graded here.

For “ACLY (from UniProt P53396 1-1101) (enzyme)”, in the assay with ANKRD22-Flag, the binding result is recorded as “no binding”.

Turning to SLC25A1 (from UniProt P53007 14-311), the binding result (with ANKRD22-Flag; in assay [1]) was “binds” each time.

Take “SLC25A1-His (from UniProt P53007 14-311)”: the binding result with full-length ANKRD22 is given as “binds”.

Take eIF4E (from UniProt P06730 1-217): in assay [2], the binding entry was “binds”.
